Measured values: article doi:10.1101/2022.10.04.510902 (bioRxiv, 2022)

T1: HisGB1-CHRONO minimal repressive domain (MRD) (human) (UniProt Q8N365)
T1 sequence: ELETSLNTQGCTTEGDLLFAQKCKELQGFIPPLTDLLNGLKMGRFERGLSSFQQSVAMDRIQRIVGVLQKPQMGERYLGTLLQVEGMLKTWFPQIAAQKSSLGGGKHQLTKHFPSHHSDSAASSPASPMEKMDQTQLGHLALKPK


Tests used:
[1] = molecular target: T1, HisGB1-CHRONO minimal repressive domain (MRD) (human); assay: pull-down
[2] = molecular target: BMAL1 transactivation domain (TAD), residues 579-626 (mouse); assay: NMR titration

| Molecule | binding [1] | binding [2] |
| --- | --- | --- |
| BMAL1 transactivation domain (TAD), residues 579-626 (mouse) (domain or fragment) | binds | – |
| His-CHRONO minimal repressive domain (MRD) (domain or fragment, UniProt Q8N365 101-245) ELETSLNTQGCTTEGDLLFAQKCKELQGFIPPLTDLLNGLKMGRFERGLSSFQQSVAMDRIQRIVGVLQKPQMGERYLGTLLQVEGMLKTWFPQIAAQKSSLGGGKHQLTKHFPSHHSDSAASSPASPMEKMDQTQLGHLALKPK | – | binds |

These are yes or no findings as the source states them, for the method shown. A result given as binding can be weak or reduced; the word gives no strength. Where a sequence is shown, tags or fusion partners need not be part of it.
